# Results are given in words; binding and its absence hold for the method and conditions named. In cells and extracts the contact can be indirect. Here binding means that the protein was enriched with, or labelled near, the bait; the list need not be complete.
# Chains of the proteins cited; added tags and fusions are not shown.
# UniProt Q9UBS0: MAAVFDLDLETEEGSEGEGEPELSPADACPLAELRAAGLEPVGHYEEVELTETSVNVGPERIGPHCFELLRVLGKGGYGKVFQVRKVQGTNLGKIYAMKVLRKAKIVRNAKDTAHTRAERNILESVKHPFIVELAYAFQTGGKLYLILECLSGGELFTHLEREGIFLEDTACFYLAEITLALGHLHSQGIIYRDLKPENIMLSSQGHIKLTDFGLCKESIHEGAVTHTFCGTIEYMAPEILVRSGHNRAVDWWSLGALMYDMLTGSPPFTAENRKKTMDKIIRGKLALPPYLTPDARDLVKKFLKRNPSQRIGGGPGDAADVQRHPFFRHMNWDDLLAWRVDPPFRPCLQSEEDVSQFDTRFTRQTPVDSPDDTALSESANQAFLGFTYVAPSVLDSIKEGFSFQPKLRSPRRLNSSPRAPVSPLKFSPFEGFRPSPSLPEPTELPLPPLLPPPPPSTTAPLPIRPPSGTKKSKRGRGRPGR
# UniProt P09651: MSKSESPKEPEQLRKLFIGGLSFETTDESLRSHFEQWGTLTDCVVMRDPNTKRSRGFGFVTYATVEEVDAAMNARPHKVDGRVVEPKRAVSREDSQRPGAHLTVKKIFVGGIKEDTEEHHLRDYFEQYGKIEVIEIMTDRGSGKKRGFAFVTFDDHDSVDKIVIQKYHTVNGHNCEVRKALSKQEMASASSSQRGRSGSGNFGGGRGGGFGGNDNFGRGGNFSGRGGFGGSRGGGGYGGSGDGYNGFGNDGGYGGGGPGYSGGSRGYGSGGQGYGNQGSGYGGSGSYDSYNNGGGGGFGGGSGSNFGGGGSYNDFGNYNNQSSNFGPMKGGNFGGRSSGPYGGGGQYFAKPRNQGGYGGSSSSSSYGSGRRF
# UniProt P63279: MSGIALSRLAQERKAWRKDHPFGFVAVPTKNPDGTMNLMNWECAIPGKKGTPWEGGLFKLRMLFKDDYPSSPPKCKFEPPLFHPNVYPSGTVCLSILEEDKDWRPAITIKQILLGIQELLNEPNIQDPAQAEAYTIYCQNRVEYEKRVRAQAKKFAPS
# UniProt P31947: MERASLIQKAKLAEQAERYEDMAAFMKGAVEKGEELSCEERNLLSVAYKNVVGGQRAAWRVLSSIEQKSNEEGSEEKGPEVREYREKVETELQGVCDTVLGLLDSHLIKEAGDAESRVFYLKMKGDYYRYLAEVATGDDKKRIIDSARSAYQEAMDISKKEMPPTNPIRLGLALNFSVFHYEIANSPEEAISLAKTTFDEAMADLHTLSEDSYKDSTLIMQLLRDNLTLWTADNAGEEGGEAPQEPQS
# UniProt P62258: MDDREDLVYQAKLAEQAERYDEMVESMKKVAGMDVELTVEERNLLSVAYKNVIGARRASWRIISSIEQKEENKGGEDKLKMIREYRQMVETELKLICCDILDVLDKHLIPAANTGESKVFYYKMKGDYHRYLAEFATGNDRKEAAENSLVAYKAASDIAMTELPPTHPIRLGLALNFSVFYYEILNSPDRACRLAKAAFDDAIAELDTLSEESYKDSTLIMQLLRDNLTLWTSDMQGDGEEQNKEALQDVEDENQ
# Biological target: TAP-tagged S6K2 (ribosomal S6 kinase 2) (UniProt Q9UBS0)
# Test: affinity purification with mass spectrometry; Tandem Affinity Purification with TAP-S6K2 as bait from HEK293 cells treated ± FGF-2 for 10 min; rabbit IgG agarose, TEV elution, streptavidin beads; SDS-PAGE, LC/MS/MS
row,binding,Molecule
1,binds,"PDCD4 (endogenous) (protein, UniProt Q53EL6 1-469) MDVENEQILNVNPADPDNLSDSLFSGDEENAGTEEIKNEINGNWISASSINEARINAKAKRRLRKNSSRDSGRGDSVSDSGSDALRSGLTVPTSPKGRLLDRRSRSGKGRGLPKKGGAGGKGVWGTPGQVYDVEEVDVKDPNYDDDQENCVYETVVLPLDERAFEKTLTPIIQEYFEHGDTNEVAEMLRDLNLGEMKSGVPVLAVSLALEGKASHREMTSKLLSDLCGTVMSTTDVEKSFDKLLKDLPELALDTPRAPQLVGQFIARAVGDGILCNTYIDSYKGTVDCVQARAALDKATVLLSMSKGGKRKDSVWGSGGGQQSVNHLVKEIDMLLKEYLLSGDISEAEHCLKELEVPHFHHELVYEAIIMVLESTGESTFKMILDLLKSLWKSSTITVDQMKRGYERIYNEIPDINLDVPHSYSVLERFVEECFQAGIISKQLRDLCPSRGRKRFVSEGDGGRLKPESY"

# Biological target: TAP-tagged hnRNPA1 (UniProt P09651)
# Test: affinity purification with mass spectrometry; Tandem Affinity Purification with TAP-hnRNPA1 as bait from HEK293 cells in the absence and presence of FGF-2 for 10 min; rabbit IgG agarose, TEV elution, streptavidin beads; SDS-PAGE, LC/MS/MS
row,binding,Molecule
1,binds,SUMO conjugating enzyme (UBC9) (from UniProt P63279 1-158)
2,binds,14-3-3σ (endogenous) (from UniProt P31947 1-248)
3,binds,14-3-3ϵ (endogenous) (from UniProt P62258 1-255)
4,binds,"SUMO activating enzyme 2 (SAE2/UBA2) (enzyme, UniProt Q9UBT2 1-640) MALSRGLPRELAEAVAGGRVLVVGAGGIGCELLKNLVLTGFSHIDLIDLDTIDVSNLNRQFLFQKKHVGRSKAQVAKESVLQFYPKANIVAYHDSIMNPDYNVEFFRQFILVMNALDNRAARNHVNRMCLAADVPLIESGTAGYLGQVTTIKKGVTECYECHPKPTQRTFPGCTIRNTPSEPIHCIVWAKYLFNQLFGEEDADQEVSPDRADPEAAWEPTEAEARARASNEDGDIKRISTKEWAKSTGYDPVKLFTKLFKDDIRYLLTMDKLWRKRKPPVPLDWAEVQSQGEETNASDQQNEPQLGLKDQQVLDVKSYARLFSKSIETLRVHLAEKGDGAELIWDKDDPSAMDFVTSAANLRMHIFSMNMKSRFDIKSMAGNIIPAIATTNAVIAGLIVLEGLKILSGKIDQCRTIFLNKQPNPRKKLLVPCALDPPNPNCYVCASKPEVTVRLNVHKVTVLTLQDKIVKEKFAMVAPDVQIEDGKGTILISSEEGETEANNHKKLSEFGIRNGSRLQADDFLQDYTLLINILHSEDLGKDVEFEVVGDAPEKVGPKQAEDAAKSITNGSDDGAQPSTSTAQEQDDVLIVDSDEEDSSNNADVSEEERSRKRKLDEKENLSAKRSRIEQKEELDDVIALD"
5,binds,"14-3-3θ (endogenous) (protein, UniProt P27348 1-245) MEKTELIQKAKLAEQAERYDDMATCMKAVTEQGAELSNEERNLLSVAYKNVVGGRRSAWRVISSIEQKTDTSDKKLQLIKDYREKVESELRSICTTVLELLDKYLIANATNPESKVFYLKMKGDYFRYLAEVACGDDRKQTIDNSQGAYQEAFDISKKEMQPTHPIRLGLALNFSVFYYEILNNPELACTLAKTAFDEAIAELDTLNEDSYKDSTLIMQLLRDNLTLWTSDSAGEECDAAEGAEN"
6,binds,"SUMO activating enzyme 1 (SAE1) (enzyme, UniProt Q9UBE0 1-346) MVEKEEAGGGISEEEAAQYDRQIRLWGLEAQKRLRASRVLLVGLKGLGAEIAKNLILAGVKGLTMLDHEQVTPEDPGAQFLIRTGSVGRNRAEASLERAQNLNPMVDVKVDTEDIEKKPESFFTQFDAVCLTCCSRDVIVKVDQICHKNSIKFFTGDVFGYHGYTFANLGEHEFVEEKTKVAKVSQGVEDGPDTKRAKLDSSETTMVKKKVVFCPVKEALEVDWSSEKAKAALKRTTSDYFLLQVLLKFRTDKGRDPSSDTYEEDSELLLQIRNDVLDSLGISPDLLPEDFVRYCFSEMAPVCAVVGGILAQEIVKALSQRDPPHNNFFFFDGMKGNGIVECLGPK"

# Reference: article PMC4227786
